In test [1] the target is T1, HA-tagged SHP (small heterodimer partner) (UniProt Q15466).
T1 sequence: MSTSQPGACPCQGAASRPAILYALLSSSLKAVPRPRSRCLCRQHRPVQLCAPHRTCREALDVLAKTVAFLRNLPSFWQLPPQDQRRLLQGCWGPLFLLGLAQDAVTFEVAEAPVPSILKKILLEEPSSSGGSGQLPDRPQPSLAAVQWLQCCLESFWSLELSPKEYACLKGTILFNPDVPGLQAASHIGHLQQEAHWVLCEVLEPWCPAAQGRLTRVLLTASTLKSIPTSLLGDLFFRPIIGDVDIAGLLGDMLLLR
As to the kind of experiment: co-IP; RNase A-treated nuclear extracts (200 ug) of HuH7 cells co-expressing Flag-DDX3 with HA-SHP or HA-HNF4; anti-HA agarose or anti-Flag M2 resin; 20 mM Tris-HCl pH 7.5, 150 mM NaCl, 10% glycerol, 1% Triton X-100, 4 C overnight.

Chains of the proteins cited; added tags and fusions are not shown.
UniProt Q09472: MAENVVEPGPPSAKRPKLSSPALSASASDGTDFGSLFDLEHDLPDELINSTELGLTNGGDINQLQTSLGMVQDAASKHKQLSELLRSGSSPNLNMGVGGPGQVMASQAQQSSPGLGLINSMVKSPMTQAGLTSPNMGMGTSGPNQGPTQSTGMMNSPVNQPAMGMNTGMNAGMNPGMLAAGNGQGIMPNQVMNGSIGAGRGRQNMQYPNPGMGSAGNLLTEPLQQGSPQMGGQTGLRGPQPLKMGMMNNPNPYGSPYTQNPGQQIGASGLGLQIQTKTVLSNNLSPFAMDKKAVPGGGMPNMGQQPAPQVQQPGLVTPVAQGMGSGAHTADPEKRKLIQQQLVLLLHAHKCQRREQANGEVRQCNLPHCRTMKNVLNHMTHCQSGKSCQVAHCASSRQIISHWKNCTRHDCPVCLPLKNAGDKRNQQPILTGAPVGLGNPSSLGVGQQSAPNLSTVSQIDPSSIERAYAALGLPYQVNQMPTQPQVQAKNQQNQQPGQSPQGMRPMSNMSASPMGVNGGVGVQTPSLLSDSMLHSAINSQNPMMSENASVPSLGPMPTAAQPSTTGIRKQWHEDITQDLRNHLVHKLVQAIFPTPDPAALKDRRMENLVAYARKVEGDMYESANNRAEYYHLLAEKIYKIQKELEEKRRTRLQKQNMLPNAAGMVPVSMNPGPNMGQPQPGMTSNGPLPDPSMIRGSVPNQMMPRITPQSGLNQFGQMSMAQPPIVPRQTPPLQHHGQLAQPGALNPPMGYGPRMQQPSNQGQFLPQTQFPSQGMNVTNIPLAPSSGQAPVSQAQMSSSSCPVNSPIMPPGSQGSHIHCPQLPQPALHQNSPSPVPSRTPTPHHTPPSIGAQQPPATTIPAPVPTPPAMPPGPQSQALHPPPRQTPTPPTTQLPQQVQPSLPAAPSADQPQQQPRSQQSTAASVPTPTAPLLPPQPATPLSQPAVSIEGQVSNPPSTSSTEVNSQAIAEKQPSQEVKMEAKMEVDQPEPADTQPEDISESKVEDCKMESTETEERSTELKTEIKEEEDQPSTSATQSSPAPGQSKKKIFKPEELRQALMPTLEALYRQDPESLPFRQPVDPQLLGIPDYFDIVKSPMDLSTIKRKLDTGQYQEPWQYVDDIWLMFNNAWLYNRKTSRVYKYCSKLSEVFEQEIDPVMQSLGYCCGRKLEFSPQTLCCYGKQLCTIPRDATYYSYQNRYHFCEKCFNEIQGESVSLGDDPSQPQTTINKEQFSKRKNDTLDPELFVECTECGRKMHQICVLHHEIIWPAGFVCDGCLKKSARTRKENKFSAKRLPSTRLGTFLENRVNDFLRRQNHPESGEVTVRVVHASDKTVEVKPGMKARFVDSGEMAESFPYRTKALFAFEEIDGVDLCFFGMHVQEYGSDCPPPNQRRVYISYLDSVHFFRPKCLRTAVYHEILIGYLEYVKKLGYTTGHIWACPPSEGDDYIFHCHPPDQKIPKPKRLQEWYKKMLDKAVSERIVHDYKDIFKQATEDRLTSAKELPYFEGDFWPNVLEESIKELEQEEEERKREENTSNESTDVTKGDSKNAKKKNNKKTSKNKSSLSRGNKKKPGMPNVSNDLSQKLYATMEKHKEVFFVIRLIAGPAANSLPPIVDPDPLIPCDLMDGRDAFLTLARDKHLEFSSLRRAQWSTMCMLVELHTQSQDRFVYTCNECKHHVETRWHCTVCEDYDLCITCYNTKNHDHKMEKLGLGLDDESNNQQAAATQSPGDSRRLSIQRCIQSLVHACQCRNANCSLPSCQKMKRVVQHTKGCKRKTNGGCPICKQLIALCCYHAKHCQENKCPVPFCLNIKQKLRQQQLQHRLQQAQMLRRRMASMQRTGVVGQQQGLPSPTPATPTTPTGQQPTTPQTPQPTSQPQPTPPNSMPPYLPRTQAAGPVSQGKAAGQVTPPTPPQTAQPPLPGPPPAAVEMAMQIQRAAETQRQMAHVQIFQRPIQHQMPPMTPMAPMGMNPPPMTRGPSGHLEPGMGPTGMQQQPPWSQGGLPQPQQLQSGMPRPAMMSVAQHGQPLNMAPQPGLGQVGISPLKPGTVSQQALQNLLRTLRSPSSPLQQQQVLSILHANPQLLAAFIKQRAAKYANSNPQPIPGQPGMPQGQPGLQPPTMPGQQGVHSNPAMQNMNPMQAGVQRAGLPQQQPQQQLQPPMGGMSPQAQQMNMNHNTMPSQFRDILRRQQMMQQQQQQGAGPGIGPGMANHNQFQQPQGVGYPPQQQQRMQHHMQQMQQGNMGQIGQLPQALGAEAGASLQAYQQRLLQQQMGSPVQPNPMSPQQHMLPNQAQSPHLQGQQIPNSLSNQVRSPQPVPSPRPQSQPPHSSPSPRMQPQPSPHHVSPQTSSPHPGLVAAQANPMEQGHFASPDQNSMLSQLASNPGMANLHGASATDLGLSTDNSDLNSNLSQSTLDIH
UniProt Q92793: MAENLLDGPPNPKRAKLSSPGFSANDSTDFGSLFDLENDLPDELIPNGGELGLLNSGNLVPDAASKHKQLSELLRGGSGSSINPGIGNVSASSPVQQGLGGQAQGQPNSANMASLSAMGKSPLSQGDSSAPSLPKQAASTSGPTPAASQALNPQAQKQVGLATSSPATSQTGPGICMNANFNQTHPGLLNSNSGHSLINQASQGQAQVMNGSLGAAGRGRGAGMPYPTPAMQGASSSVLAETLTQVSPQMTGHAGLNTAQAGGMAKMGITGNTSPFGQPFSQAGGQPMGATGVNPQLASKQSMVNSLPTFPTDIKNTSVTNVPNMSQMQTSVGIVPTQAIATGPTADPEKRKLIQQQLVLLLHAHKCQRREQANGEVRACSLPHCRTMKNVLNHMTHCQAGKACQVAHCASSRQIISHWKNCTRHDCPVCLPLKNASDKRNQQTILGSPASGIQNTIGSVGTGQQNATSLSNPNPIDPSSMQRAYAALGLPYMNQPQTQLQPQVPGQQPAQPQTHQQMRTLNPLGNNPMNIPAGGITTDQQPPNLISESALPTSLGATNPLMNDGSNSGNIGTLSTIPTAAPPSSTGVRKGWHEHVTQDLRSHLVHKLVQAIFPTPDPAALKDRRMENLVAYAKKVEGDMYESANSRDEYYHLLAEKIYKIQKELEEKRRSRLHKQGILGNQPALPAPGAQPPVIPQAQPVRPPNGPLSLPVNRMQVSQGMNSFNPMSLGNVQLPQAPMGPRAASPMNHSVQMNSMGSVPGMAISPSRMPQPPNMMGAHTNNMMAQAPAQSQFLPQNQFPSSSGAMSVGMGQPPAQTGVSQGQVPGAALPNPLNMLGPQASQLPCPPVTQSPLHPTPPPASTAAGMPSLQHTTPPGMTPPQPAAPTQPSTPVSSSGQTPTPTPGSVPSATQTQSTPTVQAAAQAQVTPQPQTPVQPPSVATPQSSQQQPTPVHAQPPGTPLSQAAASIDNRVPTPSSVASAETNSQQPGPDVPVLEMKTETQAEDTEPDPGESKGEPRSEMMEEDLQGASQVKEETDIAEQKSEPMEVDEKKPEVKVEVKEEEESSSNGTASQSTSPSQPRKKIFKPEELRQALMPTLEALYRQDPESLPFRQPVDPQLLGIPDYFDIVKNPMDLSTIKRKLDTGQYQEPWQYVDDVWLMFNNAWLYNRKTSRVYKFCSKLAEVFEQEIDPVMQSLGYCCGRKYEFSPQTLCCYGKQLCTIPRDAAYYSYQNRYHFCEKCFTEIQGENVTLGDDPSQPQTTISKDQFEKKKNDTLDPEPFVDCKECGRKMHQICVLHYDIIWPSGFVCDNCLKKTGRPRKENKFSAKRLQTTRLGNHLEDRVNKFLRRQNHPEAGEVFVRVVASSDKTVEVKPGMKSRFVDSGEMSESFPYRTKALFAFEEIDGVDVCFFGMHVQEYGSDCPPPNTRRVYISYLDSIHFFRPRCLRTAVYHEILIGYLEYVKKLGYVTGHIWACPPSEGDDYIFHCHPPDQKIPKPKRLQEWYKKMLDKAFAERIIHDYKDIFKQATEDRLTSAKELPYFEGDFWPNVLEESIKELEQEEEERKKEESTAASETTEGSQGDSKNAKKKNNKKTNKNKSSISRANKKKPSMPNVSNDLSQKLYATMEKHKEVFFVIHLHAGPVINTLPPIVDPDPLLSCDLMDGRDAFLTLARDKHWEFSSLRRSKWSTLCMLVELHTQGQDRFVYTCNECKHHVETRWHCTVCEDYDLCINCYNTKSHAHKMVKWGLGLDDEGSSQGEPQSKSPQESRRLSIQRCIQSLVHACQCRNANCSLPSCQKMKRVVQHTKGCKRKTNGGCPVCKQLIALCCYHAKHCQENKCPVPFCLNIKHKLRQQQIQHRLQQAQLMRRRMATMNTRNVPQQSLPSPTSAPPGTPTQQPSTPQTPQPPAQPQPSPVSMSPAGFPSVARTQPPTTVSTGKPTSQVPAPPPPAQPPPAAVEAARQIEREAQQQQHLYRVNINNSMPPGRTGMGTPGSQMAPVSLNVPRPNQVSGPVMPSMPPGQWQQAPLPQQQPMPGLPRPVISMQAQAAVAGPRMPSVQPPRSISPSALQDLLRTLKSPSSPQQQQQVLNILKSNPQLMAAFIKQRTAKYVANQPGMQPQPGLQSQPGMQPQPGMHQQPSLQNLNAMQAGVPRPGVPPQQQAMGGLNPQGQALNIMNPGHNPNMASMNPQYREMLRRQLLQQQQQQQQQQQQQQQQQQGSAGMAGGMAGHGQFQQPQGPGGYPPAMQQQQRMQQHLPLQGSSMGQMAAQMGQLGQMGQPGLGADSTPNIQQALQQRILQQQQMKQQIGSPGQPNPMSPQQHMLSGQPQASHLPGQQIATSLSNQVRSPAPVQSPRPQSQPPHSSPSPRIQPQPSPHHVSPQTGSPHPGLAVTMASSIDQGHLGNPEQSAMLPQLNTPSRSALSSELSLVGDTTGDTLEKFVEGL
UniProt O00571: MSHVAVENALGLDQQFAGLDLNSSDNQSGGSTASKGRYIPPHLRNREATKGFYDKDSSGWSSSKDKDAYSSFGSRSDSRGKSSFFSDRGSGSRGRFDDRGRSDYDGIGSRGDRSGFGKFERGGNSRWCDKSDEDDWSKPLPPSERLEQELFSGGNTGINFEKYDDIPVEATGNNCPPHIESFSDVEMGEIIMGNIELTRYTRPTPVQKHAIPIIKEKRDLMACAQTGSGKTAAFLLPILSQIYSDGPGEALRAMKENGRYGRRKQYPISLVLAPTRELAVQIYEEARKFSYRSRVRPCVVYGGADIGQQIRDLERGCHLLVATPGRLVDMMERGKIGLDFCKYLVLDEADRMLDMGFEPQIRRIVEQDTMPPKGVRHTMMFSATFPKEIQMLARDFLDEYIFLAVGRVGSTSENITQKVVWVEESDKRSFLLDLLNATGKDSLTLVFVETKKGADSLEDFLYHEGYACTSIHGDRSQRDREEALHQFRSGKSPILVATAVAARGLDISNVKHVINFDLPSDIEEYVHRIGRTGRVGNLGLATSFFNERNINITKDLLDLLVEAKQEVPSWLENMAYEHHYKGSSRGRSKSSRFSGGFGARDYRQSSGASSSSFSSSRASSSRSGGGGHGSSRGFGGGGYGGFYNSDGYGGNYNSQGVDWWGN

Another test addresses T2, Flag-tagged HNF4 (UniProt P41235).
T2 sequence: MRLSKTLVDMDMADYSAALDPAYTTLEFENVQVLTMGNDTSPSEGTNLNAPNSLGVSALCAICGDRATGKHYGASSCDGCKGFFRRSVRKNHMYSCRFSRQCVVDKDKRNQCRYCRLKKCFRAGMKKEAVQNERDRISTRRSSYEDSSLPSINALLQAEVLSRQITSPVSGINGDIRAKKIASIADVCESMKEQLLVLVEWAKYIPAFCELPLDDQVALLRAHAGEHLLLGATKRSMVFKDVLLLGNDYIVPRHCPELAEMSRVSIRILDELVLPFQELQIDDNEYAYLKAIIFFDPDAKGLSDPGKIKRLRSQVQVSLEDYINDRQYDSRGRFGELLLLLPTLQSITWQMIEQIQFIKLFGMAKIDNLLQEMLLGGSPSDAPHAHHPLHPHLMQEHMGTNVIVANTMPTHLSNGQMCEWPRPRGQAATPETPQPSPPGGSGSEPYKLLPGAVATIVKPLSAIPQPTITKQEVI
As to the kind of experiment: co-IP; competition assay: purified GST-DDX3 (0, 5 and 10 ug) added to washed anti-Flag M2 beads that held Flag-HNF4 with HA-SHP from HuH7 lysate; blot with anti-DDX3; only the binder purified.

The target in test [2] is p300 (human (endogenous in HuH7)) (UniProt Q09472). As to the kind of experiment: co-IP; nuclear extracts (200 ug) of HuH7 cells expressing HA-DDX3; antibodies against endogenous CBP or p300 on protein G Sepharose; anti-HA blot; IgG as control.
Test [3] deals with CREB-binding protein (CBP) (human (endogenous in HuH7)) (UniProt Q92793). The test is described as above.

No constants are given. Whether binding was seen depends on the method and setting. Binding seen in cells or lysates may run through a third protein. Some entries that bind do so weakly or less than the wild type. For some of these results: Sequences can lack the tags named with a protein.

Regarding “Flag-tagged DDX3 (from UniProt O00571 1-662)”, the binding entry in test [1] is recorded as “binds”. “GST-tagged full length DDX3 (from UniProt O00571 1-662)”: the binding result with Flag-tagged HNF4 is given as “binds”. On to “HA-tagged DDX3 (from UniProt O00571 1-662)”, for which the binding entry in test [2] and in test [3] was “binds” throughout.
